# Data taken from PubChem BioAssay AID588517 (NMMLSC, 2011).
# Hit rate of the full screen: of about 1,700 compounds, about 65 (4%) were called active.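 Rule for the calls: active = fluorescence ratio to DMSO above its plate's cutoff, the plate mean ratio plus 5 SD (cut at about 210% in these data); inactive = the rest.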 This is a selection; strong and weak results do not stand in their true shares.
# Test: compound autofluorescence in empty-vector yeast, confirmation, artefact control for antifungal efflux pump inhibitor project, S. cerevisiae AD/pABC3, flow cytometry, Cherry Pick1 set (AID 588517);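 note: unstained yeast with no Nile Red so the signal is compound autofluorescence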
# Settings: at 10 µM, active compounds read high
row,Compound,fluorescence ratio to DMSO
1,CCN(CC)c1ccc([N+](=O)[O-])c2cccnc12,inactive: 107%
2,O=[N+]([O-])c1cnc2ccc3ccccc3c2c1,inactive: 94.4%
